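Genome-wide siRNA knockdown in TC32 Ewing sarcoma cells, comparing luciferase light from an NR0B1-promoter reporter with a CMV-promoter reporter 48 hours after transfection. Each siRNA was applied at 20 nM. A z-score of the log NR0B1-over-CMV signal, less the median of siRNAs with the same seed; more negative means a stronger specific loss of the NR0B1 reporter.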

This is part of the screen; most of the strongest results are not listed here. Sequences are the guide (antisense) strand, without overhang.

Sequence,gene,seed-corrected z-score
UCCAGUUAAAGGGCGAUUG,ENAH,-0.6304
UCACUGGUGACCUCUAUCU,PPP1R3F,0.364
UGAGAGUUGAGUGAAGGCU,ZNF250,2.284
UCACGUCUUGACAUCCAGC,C6orf1,-1.161
UGAUGAACUUUGCACAUCC,LOC643936,-0.2701
UAUCAAACUGGAUAUCACG,ALOX5,0.6549
UCCCAUACAAUAAUAUCUG,WDR3,0.2817
UGGUGUUGUAGGUCCAGGC,RPL37AP8,1.479
UAUUGGGUUGGUUUCUACC,CPXCR1,0.1659
UCAUUGCUCACAUAGUAGG,EEF1G,-0.8955
UCACAUCCCAAAUCCGUGC,PLRG1,-0.5354
AGACUGGAGAUCUACCUUC,DPY30,0.3937
UAGCGAUGAACAUCACUGC,APCDD1L,1.05
UUCACUAAAAUCUUGGUAG,MRPL11,0.1311
UUGUCGGUAGCUGUGAUCG,PCDHGB3,0.2941
ACUGUCUAAGGUGCUCUGC,CX3CL1,-0.1774
UUCCUUGUAUCAGAUAAGC,ZFP37,-0.4547
UGCUCGAAUACGGAGAACU,SLC25A41,-0.1079
AUCAAUACAAGACUAUAGC,PAPD4,-1.634
UUCCUGUCUAUGGAAGUAC,CECR1,0.4485
UAUAAUACCAUCACGGUUC,MYLPF,-0.5913
UUUGUUGUCCCGGCAAGAG,RXRB,-0.293
UCAAAUACAUAAUCUGAGC,MAT2B,-0.2134
UUACCGAAUUCGUAGCUCC,RSPH1,0.008683
AAUGUCACAACAAACUCGC,KDM5A,-0.4214
UCAGGUCUUCCUUUGGAGG,GRAMD4,0.2244
UGAUAUACAGUAAUCUUGC,FBXO47,0.1499
UGAGAUACUUGGGAGAAAC,PDYN,0.3444
UUCGGUCACAGACAAAGUG,UQCRC1,-0.4812
ACUGUGAUAAGAUUCUGUG,IRF9,0.5887
UUUGCUUAAAGGUUGGUGG,EREG,-0.2832
UUAAUUCACCCACUCGCUC,GTF2H5,1.735
ACAGAGAAAGGUCUGCGUC,OR2A1,0.9717
AGAUGAACCCAUUCGAGCC,CSNK2A1,-0.1791
UAGGUCAUCACUGUAGAUC,NEU3,0.06355
UUUGGUUAAGGUUUAAUGU,ASCL4,-0.3214
AUGCGAAUAACAUCAGCGG,PNMA1,-0.5521
UCUAUGUUGGUUAAGUUGG,SENP5,-0.1378
UUAUAUGAGAGCAAGAGAG,VWA3B,0.2148
UCACCAUCGACGUAUAGAC,PFN2,0.2819
UUUCCAAUAGUUGAGGAUC,LINC00493,-0.4124
AAUGCUAACAUCUUCGCGG,PRSS12,-0.03431
UGAGCAUCCAGUUAGACAG,HILPDA,0.8458
UAAGUUCCAUGUAGUAAGG,GINS2,0.6805
UUCUUAAUGGGAGAUAACU,MIR4500HG,-0.2275
UCCAGUAUCUUCCCAAUGC,GALNS,-0.9658
UCUUUAAUCAAGGAGUUGG,PARK2,-0.8863
UUUGUGAGUAUUGAACGUG,CENPV,-0.8896
UCAUGGACACGCUGUACGC,SLC16A5,0.3573
UCAGUGUUGAAAUCCUGCG,H3F3C,1.782
UGAGGUUGCGUUGCUGUGC,HIC1,0.5512
AUAGAAGAGGUAGCUGUGG,CCL3,0.3111
UGGUGUAUUCUUCAGACCC,SRPRB,0.1408
UUCUUGAUUUGUAGGACUG,METTL25,0.754
UGGCCUUUUAGAUUAUGGU,GOLGA2P5,0.479
AAAGUUUGAAGACUUGAAU,MLLT1,-0.356

Once more, the final 6:

| Sequence | gene | seed-corrected z-score |
|---|---|---|
| `UGAGGUUGCGUUGCUGUGC` | HIC1 | 0.5512 |
| `AUAGAAGAGGUAGCUGUGG` | CCL3 | 0.3111 |
| `UGGUGUAUUCUUCAGACCC` | SRPRB | 0.1408 |
| `UUCUUGAUUUGUAGGACUG` | METTL25 | 0.754 |
| `UGGCCUUUUAGAUUAUGGU` | GOLGA2P5 | 0.479 |
| `AAAGUUUGAAGACUUGAAU` | MLLT1 | -0.356 |

From PubChem BioAssay record AID1159506 (NCATS, 2015).